# PubChem BioAssay AID686938, Drosophila RNAi Screening Center – 2013
# Assay: 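Knock-downs reducing store-operated calcium influx in Drosophila cells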 (primary screen)
# System: Drosophila S2R+ cells
# Reagent: long dsRNA against Drosophila genes, about 0.25 µg dsRNA per well, roughly 10,000 cells
# Timing: 5 days of knock-down before the calcium assay
# Conditions: thapsigargin (SERCA pump blocker) to empty calcium stores; entry signal taken 4 min after adding it
# Read-out: 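Per-well fluo-4 fluorescence in two replicates, unnormalised, measured in resting cells and 4 min after store depletion by the SERCA blocker thapsigargin; ratio of the two present in few wells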
# Direction: calcium entry signal: higher = stronger calcium signal after store depletion; resting calcium signal: higher = higher resting calcium signal
# Call rule: 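Called when the plate z-score of the entry-to-rest ratio, mean of duplicates, falls below −3; wells with low overall dye signal (Fmax z below −2) or more than five off-targets excluded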
# Meaning of the calls: active = strongly reduced calcium entry; inactive = no strong reduction
# The deposit covers about 23,000 reagents; shown is a random part of those that have a named target and a result. Over the whole deposit, 75 (0.33%) got an active call. 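Raw plate signals without normalisation; calls rest on plate z-scores that were not deposited; ratio present for only 364 wells.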 Unmarked entries are inactive. No sequences are given here. Not stated in the record: the dose of the treatment.
predicted target,DRSC id,"calcium entry signal, replicate 1 (fluorescence units)","calcium entry signal, replicate 2 (fluorescence units)","resting calcium signal, replicate 1 (fluorescence units)","resting calcium signal, replicate 2 (fluorescence units)"
Or7a (Odorant receptor 7a),DRSC18691,3.12e7,4.26e7,1.61e7,1.94e7
sens (senseless),DRSC09263,4.77e7,4.25e7,2.71e7,2.48e7
sens (senseless),DRSC23086,2.69e7,2.67e7,1.38e7,1.21e7
Rfk (Riboflavin kinase),DRSC15454,2.39e7,2.77e7,9.98e6,1.25e7
Paris (Parkin Interacting Substrate),DRSC00451,3.52e7,,1.63e7,
MED17 (Mediator complex subunit 17),DRSC16889,3.05e7,2.69e7,1.71e7,1.41e7
CG31055,DRSC13832,3.35e7,2.65e7,1.58e7,1.39e7
Brd (Bearded),DRSC09685,4.71e7,6.78e7,2.21e7,2.38e7
RpS12 (Ribosomal protein S12),DRSC11270,1.49e7,1.39e7,1.20e7,7.97e6
Peritrophin-15a,DRSC02636,3.80e7,5.40e7,1.84e7,2.28e7
mael (maelstrom),DRSC11894,2.89e7,4.06e7,1.47e7,3.04e7
CG3565,DRSC04389,3.78e7,,1.87e7,
CG31288,DRSC14667,3.14e7,4.87e7,1.75e7,1.87e7
CG11313,DRSC14295,4.15e7,4.50e7,1.98e7,1.78e7
CG11807,DRSC06087,2.28e7,2.40e7,1.00e7,1.21e7

No new results follow: entries from further up.
predicted target,DRSC id,"calcium entry signal, replicate 1 (fluorescence units)","calcium entry signal, replicate 2 (fluorescence units)","resting calcium signal, replicate 1 (fluorescence units)","resting calcium signal, replicate 2 (fluorescence units)"
Or7a (Odorant receptor 7a),DRSC18691,3.12e7,4.26e7,1.61e7,1.94e7
sens (senseless),DRSC09263,4.77e7,4.25e7,2.71e7,2.48e7

The results go on.
predicted target,DRSC id,"calcium entry signal, replicate 1 (fluorescence units)","calcium entry signal, replicate 2 (fluorescence units)","resting calcium signal, replicate 1 (fluorescence units)","resting calcium signal, replicate 2 (fluorescence units)"
Dhc98D (Dynein heavy chain at 89D),DRSC16645,3.65e7,5.16e7,1.80e7,2.07e7
CG8003,DRSC10946,3.45e7,2.02e7,2.38e7,9.07e6
gas (gasoline),DRSC04521,3.18e7,3.45e7,1.70e7,1.58e7
Jhbp3 (Juvenile hormone binding protein 3),DRSC12247,2.75e7,5.50e7,1.44e7,2.34e7
CG7406,DRSC20042,4.38e7,4.30e7,2.00e7,1.96e7
dwg (deformed wings),DRSC18766,3.68e7,4.47e7,1.82e7,2.20e7
CG17600,DRSC20638,5.01e7,4.91e7,2.29e7,2.13e7
CG17600,DRSC20640,5.04e7,5.29e7,2.33e7,2.23e7
CG17600,DRSC22753,4.08e7,4.08e7,2.36e7,1.84e7
